Measurements published in article PMC8558183.
No constants are given. Whether binding was seen depends on the method and setting. In cells and extracts the contact can be indirect. Some entries that bind do so weakly or less than the wild type. For some assays here: Sequences can lack the tags named with a protein.

By UniProt entry, the sequences of proteins in these tests, tags left out.
UniProt P23771: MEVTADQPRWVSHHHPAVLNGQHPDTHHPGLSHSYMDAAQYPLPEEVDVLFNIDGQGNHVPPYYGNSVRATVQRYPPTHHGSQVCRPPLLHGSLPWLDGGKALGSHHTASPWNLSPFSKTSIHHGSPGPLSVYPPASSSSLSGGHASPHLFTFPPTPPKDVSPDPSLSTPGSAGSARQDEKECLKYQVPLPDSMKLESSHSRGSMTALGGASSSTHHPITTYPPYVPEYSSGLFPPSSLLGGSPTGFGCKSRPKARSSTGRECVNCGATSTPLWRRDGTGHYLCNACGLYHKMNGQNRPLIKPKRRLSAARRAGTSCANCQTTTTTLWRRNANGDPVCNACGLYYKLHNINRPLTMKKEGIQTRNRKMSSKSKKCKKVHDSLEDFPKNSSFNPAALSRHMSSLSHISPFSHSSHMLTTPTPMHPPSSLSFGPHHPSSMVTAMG

T1: GST-full-length (FL) menin (UniProt O00255)
T1 sequence: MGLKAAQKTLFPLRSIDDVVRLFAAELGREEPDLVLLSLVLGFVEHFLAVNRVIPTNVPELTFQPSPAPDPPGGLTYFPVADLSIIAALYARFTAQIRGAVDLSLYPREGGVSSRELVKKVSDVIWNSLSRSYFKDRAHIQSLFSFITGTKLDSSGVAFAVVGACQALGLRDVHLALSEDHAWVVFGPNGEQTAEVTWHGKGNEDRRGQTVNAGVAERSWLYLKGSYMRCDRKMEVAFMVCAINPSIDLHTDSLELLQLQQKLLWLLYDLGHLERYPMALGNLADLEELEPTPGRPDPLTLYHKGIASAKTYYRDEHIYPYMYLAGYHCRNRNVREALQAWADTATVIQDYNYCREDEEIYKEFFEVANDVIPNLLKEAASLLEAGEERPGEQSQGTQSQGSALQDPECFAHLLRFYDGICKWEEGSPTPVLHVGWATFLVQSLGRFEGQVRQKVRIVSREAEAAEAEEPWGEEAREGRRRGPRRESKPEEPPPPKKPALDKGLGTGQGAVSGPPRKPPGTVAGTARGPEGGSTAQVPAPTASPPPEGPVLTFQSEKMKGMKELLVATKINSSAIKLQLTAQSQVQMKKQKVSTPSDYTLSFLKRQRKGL

T2: FOXA1 (human (endogenous in MCF7)) (UniProt P55317)
T2 sequence: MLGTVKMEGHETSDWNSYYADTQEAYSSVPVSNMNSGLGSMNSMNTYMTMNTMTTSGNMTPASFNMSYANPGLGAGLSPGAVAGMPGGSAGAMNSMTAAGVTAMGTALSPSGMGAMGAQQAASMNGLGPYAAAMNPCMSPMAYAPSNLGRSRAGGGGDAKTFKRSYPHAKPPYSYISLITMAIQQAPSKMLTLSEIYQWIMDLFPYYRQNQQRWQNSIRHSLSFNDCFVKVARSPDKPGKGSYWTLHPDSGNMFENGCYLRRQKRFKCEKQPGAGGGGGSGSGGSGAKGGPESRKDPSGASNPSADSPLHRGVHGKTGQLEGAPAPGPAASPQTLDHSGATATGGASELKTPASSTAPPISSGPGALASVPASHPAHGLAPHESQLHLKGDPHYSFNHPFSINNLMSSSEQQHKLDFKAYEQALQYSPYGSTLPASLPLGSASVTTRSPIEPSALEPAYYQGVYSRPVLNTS


Tests used:
[1] = target: T1, GST-full-length (FL) menin; assay: pull-down; 1.25 µg purified GST menin protein or GST control protein incubated with 1 mg or 2 mg of nuclear cell extracts from MCF7 cells; western blot with anti-GATA3 or anti-FOXA1 antibodies; only the target purified
[2] = target: T2, FOXA1 (human (endogenous in MCF7)); assay: co-IP; nuclear lysates of MCF7 cells incubated with anti-IgG, anti-GATA3 or anti-FOXA1 antibodies, western blot; endogenous level
[3] = target: GATA3 (human (endogenous in MCF7)) (UniProt P23771); assay: as above
[4] = target: GATA3 (human (endogenous in MCF7)) (UniProt P23771); assay: proximity ligation; Duolink II PLA with anti-menin and anti-GATA3 antibodies in methanol-fixed MCF7 cells; ZR75-1 cells (no menin) as control

binding [1]	binding [2]	binding [3]	binding [4]	Molecule
binds	–	–	–	GATA3 (from UniProt P23771 1-443)
–	binds	binds	binds	menin (protein, UniProt O00255 1-610) MGLKAAQKTLFPLRSIDDVVRLFAAELGREEPDLVLLSLVLGFVEHFLAVNRVIPTNVPELTFQPSPAPDPPGGLTYFPVADLSIIAALYARFTAQIRGAVDLSLYPREGGVSSRELVKKVSDVIWNSLSRSYFKDRAHIQSLFSFITGTKLDSSGVAFAVVGACQALGLRDVHLALSEDHAWVVFGPNGEQTAEVTWHGKGNEDRRGQTVNAGVAERSWLYLKGSYMRCDRKMEVAFMVCAINPSIDLHTDSLELLQLQQKLLWLLYDLGHLERYPMALGNLADLEELEPTPGRPDPLTLYHKGIASAKTYYRDEHIYPYMYLAGYHCRNRNVREALQAWADTATVIQDYNYCREDEEIYKEFFEVANDVIPNLLKEAASLLEAGEERPGEQSQGTQSQGSALQDPECFAHLLRFYDGICKWEEGSPTPVLHVGWATFLVQSLGRFEGQVRQKVRIVSREAEAAEAEEPWGEEAREGRRRGPRRESKPEEPPPPKKPALDKGLGTGQGAVSGPPRKPPGTVAGTARGPEGGSTAQVPAPTASPPPEGPVLTFQSEKMKGMKELLVATKINSSAIKLQLTAQSQVQMKKQKVSTPSDYTLSFLKRQRKGL
binds	–	–	–	FOXA1 (protein, UniProt P55317 1-472) MLGTVKMEGHETSDWNSYYADTQEAYSSVPVSNMNSGLGSMNSMNTYMTMNTMTTSGNMTPASFNMSYANPGLGAGLSPGAVAGMPGGSAGAMNSMTAAGVTAMGTALSPSGMGAMGAQQAASMNGLGPYAAAMNPCMSPMAYAPSNLGRSRAGGGGDAKTFKRSYPHAKPPYSYISLITMAIQQAPSKMLTLSEIYQWIMDLFPYYRQNQQRWQNSIRHSLSFNDCFVKVARSPDKPGKGSYWTLHPDSGNMFENGCYLRRQKRFKCEKQPGAGGGGGSGSGGSGAKGGPESRKDPSGASNPSADSPLHRGVHGKTGQLEGAPAPGPAASPQTLDHSGATATGGASELKTPASSTAPPISSGPGALASVPASHPAHGLAPHESQLHLKGDPHYSFNHPFSINNLMSSSEQQHKLDFKAYEQALQYSPYGSTLPASLPLGSASVTTRSPIEPSALEPAYYQGVYSRPVLNTS
